From PMC7181796 come the findings set out here.

The target in assay [1] is T1, wild-type human BAK (human) (UniProt Q16611).
T1 sequence: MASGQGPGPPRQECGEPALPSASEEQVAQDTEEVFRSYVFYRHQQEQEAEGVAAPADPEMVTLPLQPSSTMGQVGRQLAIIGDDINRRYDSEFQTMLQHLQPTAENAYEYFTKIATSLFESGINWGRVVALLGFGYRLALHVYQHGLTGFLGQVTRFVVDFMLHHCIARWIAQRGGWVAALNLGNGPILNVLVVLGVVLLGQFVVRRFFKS
Description: co-IP; membrane fractions of MEF incubated with 7D10 antibody (0.1 mg/ml, 30 min, 30 °C) to activate BAK, solubilized with 1% w/v digitonin, 7D10 captured on Protein G sepharose, blotted for FLAG, BAK or BAX.

Assay [2] deals with T1, wild-type human BAK (human). As to the kind of experiment: cross-linking; oxidant (CuPhe)-induced disulfide (cysteine) linkage on membrane fractions of MEF after activation (7D10 with co-expressed BAK, 3C10 or cBID); non-reducing blots.
In another assay the target is F-BAK^G51C (human) (UniProt Q16611). The description is as above.
For assay [3], the target named is T1, wild-type human BAK (human). Description: condition: only 3C10 treatment with co-expressed BAX-S184L (BAK not activated); cross-linking; oxidant (CuPhe)-induced disulfide linkage on membrane fractions of MEF co-expressing BAK and BAX-S184L, treated with 3C10 (BAX-S184L activated, BAK not activated).
For assay [4], the target named is T2, wild-type human BAK (human), Q16611.
T2 chain: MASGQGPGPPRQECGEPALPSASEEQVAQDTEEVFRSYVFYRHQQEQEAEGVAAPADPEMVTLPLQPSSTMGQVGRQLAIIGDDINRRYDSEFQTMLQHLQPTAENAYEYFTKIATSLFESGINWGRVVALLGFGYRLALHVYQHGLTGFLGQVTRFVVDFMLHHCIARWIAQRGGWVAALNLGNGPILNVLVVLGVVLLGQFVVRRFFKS
Description: cross-linking; oxidant (CuPhe)-induced disulfide (cysteine) linkage on membrane fractions of MEF after activation (7D10 with co-expressed BAK, 3C10 or cBID); non-reducing blots. The note with it: remark: other sources report otherwise.

Results are given in words; binding and its absence hold for the method and conditions named. Binding seen in cells or lysates may run through a third protein. Some results given as binding are weak or reduced against the parent protein; the word gives no strength.

B1: F-BAK^G51C (protein, UniProt Q16611 1-211)
chain: MASGQGPGPPRQECGEPALPSASEEQVAQDTEEVFRSYVFYRHQQEQEAECVAAPADPEMVTLPLQPSSTMGQVGRQLAIIGDDINRRYDSEFQTMLQHLQPTAENAYEYFTKIATSLFESGINWGRVVALLGFGYRLALHVYQHGLTGFLGQVTRFVVDFMLHHCIARWIAQRGGWVAALNLGNGPILNVLVVLGVVLLGQFVVRRFFKS
Regarding B1, the binding entry (in assay [1]; in assay [2]; with F-BAK^G51C (human)) was “binds” in each case.

B2: wild-type human BAK (protein, UniProt Q16611 1-211)
chain: MASGQGPGPPRQECGEPALPSASEEQVAQDTEEVFRSYVFYRHQQEQEAEGVAAPADPEMVTLPLQPSSTMGQVGRQLAIIGDDINRRYDSEFQTMLQHLQPTAENAYEYFTKIATSLFESGINWGRVVALLGFGYRLALHVYQHGLTGFLGQVTRFVVDFMLHHCIARWIAQRGGWVAALNLGNGPILNVLVVLGVVLLGQFVVRRFFKS
Take B2: the binding result in assay [3] was “no binding”.

B3: wild-type human BAK, Q16611 1-211 (protein)
chain: MASGQGPGPPRQECGEPALPSASEEQVAQDTEEVFRSYVFYRHQQEQEAEGVAAPADPEMVTLPLQPSSTMGQVGRQLAIIGDDINRRYDSEFQTMLQHLQPTAENAYEYFTKIATSLFESGINWGRVVALLGFGYRLALHVYQHGLTGFLGQVTRFVVDFMLHHCIARWIAQRGGWVAALNLGNGPILNVLVVLGVVLLGQFVVRRFFKS
As to B3, the binding result in assay [4] is “binds”.
